Test results taken from the supplement of paper PMC4371806.
In all, about 1,600 compounds were measured (“plate-normalized OD600 growth (mean of duplicates)”: median about 0.31, lowest 2% from about 0.23 on). This is one part of the list.

Tested on: Escherichia coli BW25113
Experiment: plate-normalized OD600 growth (mean of duplicates) (OD600 (normalized)); higher = more growth (less inhibition)
Settings: 10 µM
Procedure: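 E. coli BW25113 in LB (100 µl, 96-well, no shaking) was exposed to 10 µM of each compound (here the ChemBridge subset of a ~30,000-member library) and grown at 37°C for 24 h or 15°C for 48 h, in duplicate. Growth was read as OD600 and the duplicate ODs were normalized across screening plates to correct plate-to-plate variation.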

SMILES | plate-normalized OD600 growth (temperature: 15°C, 48 h) | plate-normalized OD600 growth (temperature: 37°C, 24 h)
CCN1CCN(Cc2ccc(Br)s2)CC1 | 0.257 | 0.626
CCN1CCN(Cc2cc(Br)c(O)c(OC)c2)CC1 | 0.265 | 0.651
CN1CCCN(Cc2c[nH]c3ccccc23)CC1 | 0.257 | 0.639
CC1CN(c2ccc([N+](=O)[O-])c(N3CCOCC3)c2)CCN1 (configuration not stated) | 0.258 | 0.618
CN1CCC(N(C)Cc2cccnc2)CC1 | 0.247 | 0.602
Nc1ccc(Oc2ccc(N)cc2)cc1 | 0.168 | 0.608
Oc1cccc(CN2CCN(c3ccc(F)cc3)CC2)c1 | 0.222 | 0.646
O=C(Cc1ccccc1)N1CCN(Cc2cccc([N+](=O)[O-])c2)CC1 | 0.259 | 0.626
CN1C(=O)N(C)C(=O)C(CCc2ccncc2)(CCc2ccncc2)C1=O | 0.266 | 0.631
COc1cccc(CN2CCN(c3ccccc3)CC2)c1 | 0.252 | 0.608
COc1ccc(CCNC2CCCCC2)cc1 | 0.237 | 0.602
C/C=C(\C)CN(C)CCc1ccccn1 | 0.251 | 0.626
O=[N+]([O-])c1ccc(N2CCN(Cc3ccc(F)c(Br)c3)CC2)cc1 | 0.257 | 0.638
CC(=O)c1ccc(N2CCN(Cc3cccc(Cl)c3)CC2)cc1 | 0.239 | 0.643
CCN1CCN(CC(c2ccccc2)c2ccccc2)CC1 | 0.251 | 0.613
CCN1CCN(Cc2ccc(OC)c(C)c2)CC1 | 0.261 | 0.606
Clc1cccc(N2CCN(Cc3ccc4c(c3)OCO4)CC2)c1 | 0.275 | 0.647
CCC(N)C(=O)c1ccc(Br)cc1 (configuration not stated) | 0.219 | 0.624
CCOc1ccccc1N1CCN(Cc2cccnc2)CC1 | 0.233 | 0.625
COc1ccc(CN2C(=O)CC(=O)NC2=O)cc1 | 0.265 | 0.633
CN1C(=O)C(C2(C#N)CCCCC2)C(=O)N(C)C1=O | 0.264 | 0.635

Quoted at random: 2 records from the list.
SMILES | plate-normalized OD600 growth (temperature: 15°C, 48 h) | plate-normalized OD600 growth (temperature: 37°C, 24 h)
O=[N+]([O-])c1ccc(N2CCN(Cc3ccc(F)c(Br)c3)CC2)cc1 | 0.257 | 0.638
COc1cccc(CN2CCN(c3ccccc3)CC2)c1 | 0.252 | 0.608

(further entries)

SMILES | plate-normalized OD600 growth (temperature: 15°C, 48 h) | plate-normalized OD600 growth (temperature: 37°C, 24 h)
OC1CCN(Cc2c[nH]c3ccccc23)CC1 | 0.241 | 0.615
O=C1CC(=O)N(c2ccccc2)C(=O)N1 | 0.252 | 0.62
COc1ccc(CNCCc2cccc(Cl)c2)cc1 | 0.243 | 0.605
CCN1CCN(Cc2cccs2)CC1 | 0.24 | 0.605
OC(Cc1ccncc1)C(Cl)(Cl)Cl (configuration not stated) | 0.247 | 0.61
Oc1cccc(CN2CCN(c3ccccc3Cl)CC2)c1 | 0.26 | 0.611
COc1ccc(C2(CN)CCCC2)cc1OC | 0.258 | 0.615
Cc1ccc(-c2nc3ccccc3c(=O)n2-c2cccc(O)c2)cc1 | 0.247 | 0.61
c1ccc(CN2CCN(C3CCCCC3)CC2)cc1 | 0.26 | 0.617
COc1cc(Cc2ccc(N)c(OC)c2)ccc1N | 0.255 | 0.625
c1ccc(CCNCc2ccco2)cc1 | 0.247 | 0.609
Cc1cccc(CN2C[C@@H]3C[C@@H](C2)c2cccc(=O)n2C3)c1 | 0.283 | 0.635
[O-][n+]1onc2c1CCC1N(O)CCC21O (configuration not stated) | 0.285 | 0.651
O=c1cccc2n1C[C@H]1C[C@H]2CN(Cc2c(Cl)cccc2Cl)C1 | 0.284 | 0.625
O=C1NC(=O)C(Cc2ccc(F)cc2)C(=O)N1 | 0.271 | 0.632
COc1ccc(N2CCN(Cc3ccc(OC)c(C)c3)CC2)cc1 | 0.242 | 0.598
Cc1ccc2c(c1)c(=O)c1c3n2CCN(CC#N)C3CC1 (configuration not stated) | 0.254 | 0.617
CCCN1CCC(NC2CCC(O)CC2)CC1 (configuration not stated) | 0.247 | 0.598
OCCN1CCN(Cc2ccc(F)cc2F)CC1 | 0.26 | 0.618
CN(CCc1ccccc1)Cc1cccc(O)c1 | 0.265 | 0.604
